The supplement of paper PMC7661543
± gives the standard deviation of the averaged measurements. Differences between knockout arms are mostly noise.

Tested on: ZR-75-1
Assay: relative cell number vs DMSO control (72 h) (% of DMSO); higher = less growth inhibition (more cells)
Procedure: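 QMAP-Seq: a pool of 5 breast cancer cell lines (ZR-75-1, SKBR3, HCC-38, MDA-MB-231, BT-20), each carrying 12 doxycycline-inducible Cas9 sgRNA perturbations (11 knockouts plus non-targeting sgNT), was treated with compounds for 72 h at four 10-fold doses (10 nM-10 uM or 1 nM-1 uM range). Barcodes were amplified and sequenced, and cell number was interpolated from 293T spike-in standard curves. The result is expressed as % of the median of DMSO wells. Two biological replicates.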

[1] = sgRNA knockout: sgATF3, 1000 nM
[2] = sgRNA knockout: sgATF3, 10000 nM
[3] = sgRNA knockout: sgATF4, 1000 nM
[4] = sgRNA knockout: sgATF4, 10000 nM
[5] = sgRNA knockout: sgATF6, 1000 nM
[6] = sgRNA knockout: sgATF6, 10000 nM
[7] = sgRNA knockout: sgATG7, 1000 nM
[8] = sgRNA knockout: sgATG7, 10000 nM
[9] = sgRNA knockout: sgERN1, 1000 nM
[10] = sgRNA knockout: sgERN1, 10000 nM
[11] = sgRNA knockout: sgHSF2, 1000 nM
[12] = sgRNA knockout: sgHSF2, 10000 nM
[13] = sgRNA knockout: sgNFE2L2, 10 nM
[14] = sgRNA knockout: sgNFE2L2, 100 nM
[15] = sgRNA knockout: sgNFE2L2, 1000 nM
[16] = sgRNA knockout: sgNFE2L2, 10000 nM
[17] = sgRNA knockout: sgSLC35F2, 10 nM
[18] = sgRNA knockout: sgSLC35F2, 100 nM
[19] = sgRNA knockout: sgSLC35F2, 1000 nM
[20] = sgRNA knockout: sgSLC35F2, 10000 nM
[21] = sgRNA knockout: sgXBP1, 1000 nM
[22] = sgRNA knockout: sgXBP1, 10000 nM

Compound	relative cell number (sgRNA knockout: sgATF3, 10 nM)	relative cell number (sgRNA knockout: sgATF3, 100 nM)	relative cell number [1]	relative cell number (sgRNA knockout: sgATF4, 10 nM)	relative cell number (sgRNA knockout: sgATF4, 100 nM)	relative cell number [3]	relative cell number (sgRNA knockout: sgATF6, 10 nM)	relative cell number (sgRNA knockout: sgATF6, 100 nM)	relative cell number [5]	relative cell number (sgRNA knockout: sgATG7, 10 nM)	relative cell number (sgRNA knockout: sgATG7, 100 nM)	relative cell number [7]	relative cell number (sgRNA knockout: sgERN1, 10 nM)	relative cell number (sgRNA knockout: sgERN1, 100 nM)	relative cell number [9]	relative cell number (sgRNA knockout: sgHSF2, 10 nM)	relative cell number (sgRNA knockout: sgHSF2, 100 nM)	relative cell number [11]	relative cell number [13]	relative cell number [14]	other results
C[C@@]1(C(=O)Nc2ccc(F)nc2)CCCN1c1nc(Nc2cc(C3CC3)n[nH]2)c2cccn2n1	68.4 ± 13	60.1 ± 7.9	54.5 ± 6.8	61.2 ± 9.8	90.2 ± 2.6	50.8 ± 1.1	83.2 ± 11	82.2 ± 7.9	46.2 ± 10	102 ± 15	61.9 ± 4	48 ± 8.6	104 ± 12	84.4 ± 1.1	43.3 ± 2.1	88.2 ± 20	63.5 ± 1.8	41.9 ± 2.5	79.3 ± 2.7	106 ± 7.2	relative cell number [2]: 42 ± 21; relative cell number [4]: 31.5 ± 8; relative cell number [6]: 28.1 ± 11; relative cell number [8]: 40.8 ± 2.5; relative cell number [10]: 41.1 ± 5.7; relative cell number [12]: 38.6 ± 7.6; relative cell number [15]: 47.7 ± 0.98; relative cell number [16]: 29.8 ± 3.6; relative cell number [17]: 74.5 ± 2.7; relative cell number [18]: 63.3 ± 15; relative cell number [19]: 37.3 ± 10; relative cell number [20]: 28.8 ± 0.32; relative cell number (sgRNA knockout: sgXBP1, 10 nM): 87 ± 1.8; relative cell number (sgRNA knockout: sgXBP1, 100 nM): 85 ± 6.8; relative cell number [21]: 45.84 ± 0.29; relative cell number [22]: 30.2 ± 4.5
CN1C(=O)C(Cc2c[nH]c3ccccc23)NC1=S (stereo not given) [Necrostatin1]	90.4 ± 2.5	97.8 ± 14	70.2 ± 9	78.8 ± 36	73 ± 14	54.7 ± 9	102 ± 26	64.5 ± 35	45 ± 16	99.6 ± 23	68.4 ± 2.8	56.4 ± 8.5	109.9 ± 0.42	90.5 ± 4.7	72.8 ± 15	97.3 ± 1.9	68.5 ± 11	78.5 ± 13	95.3 ± 6.7	84.5 ± 8.4	relative cell number [2]: 44.2 ± 15; relative cell number [4]: 47.9 ± 16; relative cell number [6]: 46.3 ± 9.2; relative cell number [8]: 41.3 ± 12; relative cell number [10]: 63.9 ± 14; relative cell number [12]: 52.6 ± 14; relative cell number [15]: 80.9 ± 2.2; relative cell number [16]: 55.9 ± 4.9; relative cell number [17]: 99.4 ± 8; relative cell number [18]: 52.3 ± 24; relative cell number [19]: 62.7 ± 32; relative cell number [20]: 54.5 ± 17; relative cell number (sgRNA knockout: sgXBP1, 10 nM): 89.8 ± 12; relative cell number (sgRNA knockout: sgXBP1, 100 nM): 83.5 ± 9.5; relative cell number [21]: 96.5 ± 3.9; relative cell number [22]: 57.9 ± 3.5
FC(F)c1nc2ccccc2n1-c1nc(N2CCOCC2)nc(N2CCOCC2)n1 [ZSTK474]	92.5 ± 3.9	114 ± 25	64.3 ± 2.2	131 ± 18	104 ± 22	78.5 ± 44	156 ± 40	100 ± 12	62.9 ± 23	80.4 ± 17	81.7 ± 38	61.8 ± 8.8	107 ± 6.9	87.3 ± 1.9	66.1 ± 9.8	96.8 ± 5.7	88.3 ± 10	57 ± 5.2	96.1 ± 5.2	103 ± 12	relative cell number [2]: 46.8 ± 20; relative cell number [4]: 44.9 ± 12; relative cell number [6]: 39.7 ± 5.2; relative cell number [8]: 43 ± 6.6; relative cell number [10]: 48.2 ± 11; relative cell number [12]: 46.7 ± 7.3; relative cell number [15]: 76.2 ± 15; relative cell number [16]: 36.4 ± 11; relative cell number [17]: 72.3 ± 12; relative cell number [18]: 88.3 ± 12; relative cell number [19]: 78.2 ± 3; relative cell number [20]: 41.1 ± 6.3; relative cell number (sgRNA knockout: sgXBP1, 10 nM): 93.4 ± 15; relative cell number (sgRNA knockout: sgXBP1, 100 nM): 83.7 ± 4; relative cell number [21]: 67.7 ± 9.1; relative cell number [22]: 36.9 ± 11
CC(C)[C@]12O[C@H]1[C@@H]1O[C@]13[C@]1(O[C@H]1C[C@H]1C4=C(CC[C@@]13C)C(=O)OC4)[C@@H]2O [Triptolide]	64.8 ± 1.6	12.2 ± 3.4	17.7 ± 3.3	68.6 ± 3	11.8 ± 5.9	13.2 ± 1.1	50.5 ± 31	16.1 ± 0.25	10.8 ± 1.8	53.1 ± 21	8.99 ± 5.2	8.96 ± 4.6	57.1 ± 7.1	12.5 ± 1.7	15 ± 1.9	67.1 ± 11	8.65 ± 3.8	12.2 ± 5.6	69.6 ± 8.1	8.41 ± 1.1	relative cell number (sgRNA knockout: sgATF3, 1 nM): 81.2 ± 33; relative cell number (sgRNA knockout: sgATF4, 1 nM): 119 ± 46; relative cell number (sgRNA knockout: sgATF6, 1 nM): 77 ± 9.7; relative cell number (sgRNA knockout: sgATG7, 1 nM): 93.5 ± 19; relative cell number (sgRNA knockout: sgERN1, 1 nM): 89.11 ± 0.83; relative cell number (sgRNA knockout: sgHSF2, 1 nM): 86.7 ± 22; relative cell number (sgRNA knockout: sgNFE2L2, 1 nM): 91.6 ± 5.9; relative cell number [15]: 9.17 ± 0.36; relative cell number (sgRNA knockout: sgSLC35F2, 1 nM): 73.3 ± 7.7; relative cell number [17]: 50.9 ± 5.8; relative cell number [18]: 13.2 ± 12; relative cell number [19]: 7.62 ± 6.6; relative cell number (sgRNA knockout: sgXBP1, 1 nM): 90.2 ± 13; relative cell number (sgRNA knockout: sgXBP1, 10 nM): 56.8 ± 8.9; relative cell number (sgRNA knockout: sgXBP1, 100 nM): 8.4 ± 0.89; relative cell number [21]: 9.39 ± 0.95
Cc1onc(-c2ccccc2)c1-c1ccc(S(N)(=O)=O)cc1 [Valdecoxib]	108 ± 27	123 ± 10	89 ± 7.5	107 ± 41	98.3 ± 18	106 ± 8.9	107 ± 36	98.8 ± 31	124 ± 10	104.8 ± 0.59	89.6 ± 28	109 ± 7.3	116 ± 14	92.6 ± 7	116 ± 8.8	116 ± 4	119 ± 34	98.7 ± 3.2	82.1 ± 12	97.2 ± 1.9	relative cell number [2]: 81.6 ± 21; relative cell number [4]: 115 ± 2; relative cell number [6]: 113 ± 52; relative cell number [8]: 99.6 ± 8.1; relative cell number [10]: 109 ± 8.8; relative cell number [12]: 107 ± 15; relative cell number [15]: 109 ± 16; relative cell number [16]: 97.7 ± 13; relative cell number [17]: 63.5 ± 6.7; relative cell number [18]: 83.5 ± 58; relative cell number [19]: 111 ± 5.5; relative cell number [20]: 99.5 ± 77; relative cell number (sgRNA knockout: sgXBP1, 10 nM): 80.1 ± 19; relative cell number (sgRNA knockout: sgXBP1, 100 nM): 94.9 ± 16; relative cell number [21]: 100 ± 3.2; relative cell number [22]: 90.1 ± 14
